Record: PubChem BioAssay AID602196 (INSERM, 2012)

- Assay: 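Genes whose knock-down alters cisplatin killing of lung cancer cells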
- System: human A549 lung cancer cells
- Knock-down reagent: siRNA pair against human genes
- Duration: 48 h transfection before cisplatin; time from cisplatin to read-out not stated
- Conditions: cisplatin at a dose killing half of control-siRNA cells; exact dose and duration not given
- Measurement: 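Shift in cisplatin death relative to control siRNA, from -50 (all cells die) to +50 (no cells die); siRNAs harmful on their own scored 0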
- Scale: two-siRNA summed score (-2 to +2): higher = both siRNAs protect from cisplatin killing; -2 means both sensitise; mean protection from cisplatin (shift in death) and protection from cisplatin (shift in death), siRNA C and protection from cisplatin (shift in death), siRNA D: higher = protection from cisplatin killing
- Call rule: 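Each siRNA scores 0 if harmful alone by LDH or WST-1, otherwise +1 if it reduces and -1 if it increases cisplatin killing; a gene is active when both siRNAs agree (sum +2 or -2)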
- Meaning of the calls: active = both siRNAs shift cisplatin killing the same way; inactive = no consistent shift, or siRNA harmful alone
Here is an unselected part of about 23,000 deposited reagents. 455 of them (2%) were called active. 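Active includes both protection and sensitisation; some change values fall well beyond the stated -50 to +50 range.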 Unmarked entries are inactive. Not stated in the record: the amount of reagent.

| gene | two-siRNA summed score (-2 to +2) | mean protection from cisplatin (shift in death) (%) | protection from cisplatin (shift in death), siRNA C (%) | protection from cisplatin (shift in death), siRNA D (%) |
| --- | --- | --- | --- | --- |
| LOC440678 | 0 | 2.9 | -5.2 | 11 |
| OSBPL1A | 1 | 7.4 | 12.6 | 2.3 |
| KCNN3 | 0 | 0.3 | -3.6 | 4.1 |
| LOC388351 | 1 | 9.5 | 22.6 | -3.5 |
| BCAR1 | -1 | -11.6 | 0 | -23.2 |
| INPP5B | -1 | -7.4 | -8.5 | -6.3 |
| RMDN2 | 0 | -2.1 | -12.4 | 8.3 |
| TMEM175 | 0 | -1.2 | 6.2 | -8.7 |
| HSD17B7 | -1 | -14.4 | -29.1 | 0.2 |
| NT5DC3 | 0 | 11.9 | 13.5 | 10.2 |
| CNNM1 | -1 | -4.2 | 8.3 | -16.7 |
| B3GNT9 | 0 | -3 | -12.1 | 6.2 |
| LOC440078 | 1 | 19.8 | 20.6 | 19 |
| KIAA1991 | 1 | 15.4 | 10.5 | 20.3 |
| GLS | 1 | 5.6 | -4.1 | 15.4 |
| PARP3 | -1 | -0.2 | -9.8 | 9.5 |
| LOC441163 | 1 | 4.6 | 15.6 | -6.3 |
| COL20A1 | 0 | 5.1 | 4.6 | 5.6 |
| CHCHD7 | -1 | -7.9 | -15.9 | 0.1 |
| AIRE | -1 | -11 | 7.2 | -29.1 |
| ATP6V1G2 | 0 | 6.3 | 7.8 | 4.8 |
| LOC392267 | 0 | 5.4 | 7 | 3.8 |
| WDR3 | 0 | -7 | -11.9 | -2.2 |
